{"source": "the supplement of paper PMC5949888", "note": "Most values lie at the floor of the assay. Slopes are relative: functional sequences can read slightly below zero.", "data": [{"tested_on": "Saccharomyces cerevisiae PS128 hsf1 delta, HSF1(1-493) fusion", "assay": "growth estimate (transactivation domain function in HSF1 fusion, heat-shock survival) (a.u. (slope of normalised read count over time)); higher = stronger growth at 37°C, i.e. more transactivation activity", "conditions": "library: random library", "values": [{"substance": "TGIGAYKGPCNAVNVRNGVT", "growth estimate": "< -0.25"}, {"substance": "TGIGDEPTMGLLPYPWAYMD", "growth estimate": "< -0.25"}, {"substance": "TGIGKFVPGQLSLDNNSQYL", "growth estimate": "< -0.25"}, {"substance": "TGISRAGIEICSAGQCAQVV", "growth estimate": "< -0.25"}, {"substance": "TGIVCIVLEDATVSIRRRAP", "growth estimate": "< -0.25"}, {"substance": "TGKVNIYATHAEPLNFLDQG", "growth estimate": "< -0.25"}, {"substance": "TGLCGTEVSNIPTQEDIVQW", "growth estimate": "< -0.25"}, {"substance": "TGLHSCSM", "growth estimate": "< -0.25"}, {"substance": "TGLTQIVGCLYRVWFISR", "growth estimate": "< -0.25"}, {"substance": "TGMESALFYVVLNTSFARIW", "growth estimate": "< -0.25"}, {"substance": "TGMNKD", "growth estimate": "< -0.25"}, {"substance": "TGMRYTWAFRLSGSVVPTSV", "growth estimate": "< -0.25"}, {"substance": "TGPLTR", "growth estimate": "< -0.25"}, {"substance": "TGPTVSVRI", "growth estimate": "< -0.25"}, {"substance": "TGQR", "growth estimate": "< -0.25"}, {"substance": "TGQVRSLQAVQWI", "growth estimate": "< -0.25"}, {"substance": "TGRA", "growth estimate": "< -0.25"}, {"substance": "TGRANHMFTALNPGELKADS", "growth estimate": "< -0.25"}, {"substance": "TGRFPFFEYTPRCAILLKVQ", "growth estimate": "< -0.25"}, {"substance": "TGRHRSRADCPSQASANMTL", "growth estimate": "< -0.25"}, {"substance": "TGRLIVSECLPPWPDFPQTG", "growth estimate": "< -0.25"}, {"substance": "TGRLRCISGGEKERA", "growth estimate": -0.112}, {"substance": "TGRTDFFSQKTWTDRE", "growth estimate": -0.248}, {"substance": "TGRVYRVPGYGREAPIIVK", "growth estimate": "< -0.25"}, {"substance": "TGRYEKGTL", "growth estimate": "< -0.25"}, {"substance": "TGSNRFGSGSWHCTAI", "growth estimate": "< -0.25"}, {"substance": "TGSPTDQR", "growth estimate": "< -0.25"}, {"substance": "TGSSKLIIPRGMEGAPTTGS", "growth estimate": "< -0.25"}, {"substance": "TGSYGGLLLYTWRLPE", "growth estimate": "< -0.25"}, {"substance": "TGTCEGCAPRVLKAQSNHLE", "growth estimate": "< -0.25"}, {"substance": "TGTIKRRYPK", "growth estimate": "< -0.25"}, {"substance": "TGTINIFGAAGHNIGRALTA", "growth estimate": "< -0.25"}, {"substance": "TGTKGPDVRVDIHGSYTSES", "growth estimate": "< -0.25"}, {"substance": "TGTRTKLINLYGH", "growth estimate": "< -0.25"}, {"substance": "TGVDAYPSLPSHVVRLEHCT", "growth estimate": -0.246}, {"substance": "TGVGAYAKPFGNYARFAITH", "growth estimate": "< -0.25"}, {"substance": "TGVGVRYR", "growth estimate": "< -0.25"}, {"substance": "TGVIERTAETLGATSRISYS", "growth estimate": "< -0.25"}, {"substance": "TGVQCGTSLGSA", "growth estimate": "< -0.25"}, {"substance": "TGVRLAARGYFGVRPGNKPG", "growth estimate": "< -0.25"}, {"substance": "TGVV", "growth estimate": "< -0.25"}, {"substance": "TGYGFAWPLSQVEFDGGHGL", "growth estimate": "< -0.25"}, {"substance": "TGYITKVLPFLMVL", "growth estimate": "< -0.25"}, {"substance": "THD", "growth estimate": "< -0.25"}, {"substance": "THDERSFILRSIRGRTLRAP", "growth estimate": "< -0.25"}, {"substance": "THDSIVGARGYTVQSQLAYV", "growth estimate": "< -0.25"}, {"substance": "THGDCGIHVQRQARHAVDPQ", "growth estimate": "< -0.25"}, {"substance": "THGVDEAQGEYIGFVNAPSG", "growth estimate": "< -0.25"}, {"substance": "THGYHPITIATFGVSFLIFL", "growth estimate": "< -0.25"}, {"substance": "THLII", "growth estimate": "< -0.25"}, {"substance": "THMLGMRIWIHKSGIKPGRV", "growth estimate": "< -0.25"}, {"substance": "THPKSLLRALNLGNGGERCP", "growth estimate": "< -0.25"}, {"substance": "THRCVAERYAGQ", "growth estimate": "< -0.25"}, {"substance": "THRKSCERTGSKGASITPNA", "growth estimate": "< -0.25"}, {"substance": "THRLTK", "growth estimate": "< -0.25"}, {"substance": "THRRLAWMNHSPFTTLYKTG", "growth estimate": "< -0.25"}, {"substance": "THRVYTSASTAGVVSALAYL", "growth estimate": "< -0.25"}, {"substance": "THS", "growth estimate": "< -0.25"}, {"substance": "THSIRFESNCMRRRRPHARK", "growth estimate": "< -0.25"}, {"substance": "THTSRVHPRRAAAHHIRGFV", "growth estimate": "< -0.25"}, {"substance": "THYPGRQSFV", "growth estimate": "< -0.25"}, {"substance": "TIAEPRNEEEDTPEGGSGVY", "growth estimate": "< -0.25"}, {"substance": "TIAT", "growth estimate": "< -0.25"}, {"substance": "TIFNDNGT", "growth estimate": "< -0.25"}, {"substance": "TIGQGRRRTKPVPPMSVIDQ", "growth estimate": "< -0.25"}, {"substance": "TIGSGGVAARVSRWPVREDG", "growth estimate": "< -0.25"}, {"substance": "TILIGDTCQVGNRISPAGFV", "growth estimate": "< -0.25"}, {"substance": "TILKGGTVLLLKNQYDELRT", "growth estimate": "< -0.25"}, {"substance": "TINQSIGNDLGLRASCCDSP", "growth estimate": "< -0.25"}, {"substance": "TIPKKVLREGWPVRTVLPRH", "growth estimate": "< -0.25"}, {"substance": "TIPSGSGGLCLMHGLVDNRQ", "growth estimate": "< -0.25"}, {"substance": "TIQSIFKLSIRHRLMVPQWI", "growth estimate": "< -0.25"}, {"substance": "TIRPE", "growth estimate": "< -0.25"}, {"substance": "TIRVRLRDISSLRAGGDIYG", "growth estimate": "< -0.25"}, {"substance": "TISFLTGRD", "growth estimate": "< -0.25"}, {"substance": "TISRCHRSRAIIMA", "growth estimate": "< -0.25"}, {"substance": "TISYA", "growth estimate": "< -0.25"}, {"substance": "TISYLRR", "growth estimate": "< -0.25"}, {"substance": "TITDLPVYAPHYSSINA", "growth estimate": "< -0.25"}, {"substance": "TITGASYKPGWDSVGYLGHD", "growth estimate": "< -0.25"}, {"substance": "TITGRAMANGTGTVRVAPLS", "growth estimate": "< -0.25"}, {"substance": "TITINRSPTSQVRAFLR", "growth estimate": "< -0.25"}, {"substance": "TITLGLEEWLCGPAPQSGYP", "growth estimate": "< -0.25"}, {"substance": "TITVNR", "growth estimate": "< -0.25"}, {"substance": "TKCNSNMRLRGYHTPVTKHT", "growth estimate": "< -0.25"}, {"substance": "TKGIEYERCDKVRVRTIMRG", "growth estimate": "< -0.25"}, {"substance": "TKIYENNSAWLLQKLATQTH", "growth estimate": "< -0.25"}, {"substance": "TKLHTKDLLKRGPGHQS", "growth estimate": "< -0.25"}, {"substance": "TKLLGVVPAGFEPSYSRVLE", "growth estimate": "< -0.25"}, {"substance": "TKLRPYGMSHFSGLWGPSGA", "growth estimate": "< -0.25"}, {"substance": "TKNMTCHCLLILCGKWDPTS", "growth estimate": "< -0.25"}, {"substance": "TKPSEGT", "growth estimate": "< -0.25"}, {"substance": "TKPSEPELEAKKGVVIRVEA", "growth estimate": "< -0.25"}, {"substance": "TKPTYKSPPSGTHRWRVLPP", "growth estimate": "< -0.25"}, {"substance": "TKQRQNA", "growth estimate": "< -0.25"}, {"substance": "TKRPILCIKHLSCSRNERAK", "growth estimate": "< -0.25"}, {"substance": "TKRSDVQILTPCVGRSPLFA", "growth estimate": "< -0.25"}]}]}
